Literature values as cited in patent publication US20240398698A1, “CONAZOLANTIFUNGAL KETOE IN SOLUTION OR SUSPENSION FOR USE IN THE HUMAN EAR” (priority 2023, published 2024).

solubility in water: practically insoluble
Compound: C[C@@H]1C[C@H]2[C@@H]3CCC4=CC(=O)C=C[C@]4(C)[C@@]3(F)[C@@H](O)C[C@]2(C)[C@@]1(O)C(=O)CO [dexamethasone]
